Assay results reported in the supplement of paper PMC10849652.
The other results are listed elsewhere or left out.

The chains behind the UniProt entries cited, without tags or fusion partners. Where a name states a change or a piece, a line headed by the entry shows the natural chain unless it says otherwise.
UniProt O15234, whole entry, looked up: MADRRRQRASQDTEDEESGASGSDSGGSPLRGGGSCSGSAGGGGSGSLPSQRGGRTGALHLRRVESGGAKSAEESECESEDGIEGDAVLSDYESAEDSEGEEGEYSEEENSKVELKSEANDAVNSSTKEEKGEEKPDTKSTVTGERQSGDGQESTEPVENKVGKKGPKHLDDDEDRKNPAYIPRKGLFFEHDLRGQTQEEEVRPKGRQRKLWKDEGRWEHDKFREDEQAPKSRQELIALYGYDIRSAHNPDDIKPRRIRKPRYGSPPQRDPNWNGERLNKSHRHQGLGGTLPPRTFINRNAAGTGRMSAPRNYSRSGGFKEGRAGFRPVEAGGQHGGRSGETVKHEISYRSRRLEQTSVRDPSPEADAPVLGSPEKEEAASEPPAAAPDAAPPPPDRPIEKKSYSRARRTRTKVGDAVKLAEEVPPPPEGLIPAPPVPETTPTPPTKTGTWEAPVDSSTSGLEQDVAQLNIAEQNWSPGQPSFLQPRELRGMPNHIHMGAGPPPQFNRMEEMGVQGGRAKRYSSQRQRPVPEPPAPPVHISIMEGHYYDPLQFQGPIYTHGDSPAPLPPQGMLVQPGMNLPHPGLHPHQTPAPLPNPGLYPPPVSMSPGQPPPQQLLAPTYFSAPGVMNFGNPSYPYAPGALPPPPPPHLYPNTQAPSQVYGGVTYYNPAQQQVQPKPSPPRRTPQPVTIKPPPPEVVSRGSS
UniProt Q96A33: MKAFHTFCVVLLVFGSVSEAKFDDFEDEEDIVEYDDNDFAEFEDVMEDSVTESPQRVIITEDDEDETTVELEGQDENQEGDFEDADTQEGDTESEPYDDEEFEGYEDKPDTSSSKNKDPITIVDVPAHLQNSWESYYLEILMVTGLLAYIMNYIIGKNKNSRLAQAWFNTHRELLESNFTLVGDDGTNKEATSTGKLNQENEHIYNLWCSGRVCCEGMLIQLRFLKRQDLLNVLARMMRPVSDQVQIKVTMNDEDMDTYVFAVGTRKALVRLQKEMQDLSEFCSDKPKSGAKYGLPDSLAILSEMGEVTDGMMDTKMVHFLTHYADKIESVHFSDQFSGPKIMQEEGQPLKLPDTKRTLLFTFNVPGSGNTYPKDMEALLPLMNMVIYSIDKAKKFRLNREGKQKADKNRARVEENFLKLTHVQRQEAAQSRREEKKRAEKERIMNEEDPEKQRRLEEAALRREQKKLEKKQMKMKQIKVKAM
UniProt Q9BUN5: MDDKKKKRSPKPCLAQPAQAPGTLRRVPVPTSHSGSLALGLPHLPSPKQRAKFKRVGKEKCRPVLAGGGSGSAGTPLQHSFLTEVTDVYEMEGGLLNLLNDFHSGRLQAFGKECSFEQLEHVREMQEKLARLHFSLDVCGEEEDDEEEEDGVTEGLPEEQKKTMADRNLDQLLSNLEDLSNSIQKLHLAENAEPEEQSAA
UniProt O75909: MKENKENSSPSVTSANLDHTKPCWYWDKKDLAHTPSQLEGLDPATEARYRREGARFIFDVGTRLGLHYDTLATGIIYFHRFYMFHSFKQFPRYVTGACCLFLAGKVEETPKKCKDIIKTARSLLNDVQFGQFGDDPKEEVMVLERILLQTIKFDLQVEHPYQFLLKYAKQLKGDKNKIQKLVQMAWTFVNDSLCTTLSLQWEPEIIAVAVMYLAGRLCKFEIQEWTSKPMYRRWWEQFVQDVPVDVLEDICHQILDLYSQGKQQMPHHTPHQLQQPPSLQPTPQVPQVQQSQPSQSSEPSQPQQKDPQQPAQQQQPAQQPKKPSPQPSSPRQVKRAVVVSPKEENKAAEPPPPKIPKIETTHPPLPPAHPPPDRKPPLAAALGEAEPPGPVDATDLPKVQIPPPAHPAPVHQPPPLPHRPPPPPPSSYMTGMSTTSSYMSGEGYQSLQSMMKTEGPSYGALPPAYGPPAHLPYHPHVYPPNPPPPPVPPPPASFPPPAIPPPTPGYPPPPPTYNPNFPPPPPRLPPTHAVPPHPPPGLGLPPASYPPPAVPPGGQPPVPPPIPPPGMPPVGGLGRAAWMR
UniProt Q8WXE0: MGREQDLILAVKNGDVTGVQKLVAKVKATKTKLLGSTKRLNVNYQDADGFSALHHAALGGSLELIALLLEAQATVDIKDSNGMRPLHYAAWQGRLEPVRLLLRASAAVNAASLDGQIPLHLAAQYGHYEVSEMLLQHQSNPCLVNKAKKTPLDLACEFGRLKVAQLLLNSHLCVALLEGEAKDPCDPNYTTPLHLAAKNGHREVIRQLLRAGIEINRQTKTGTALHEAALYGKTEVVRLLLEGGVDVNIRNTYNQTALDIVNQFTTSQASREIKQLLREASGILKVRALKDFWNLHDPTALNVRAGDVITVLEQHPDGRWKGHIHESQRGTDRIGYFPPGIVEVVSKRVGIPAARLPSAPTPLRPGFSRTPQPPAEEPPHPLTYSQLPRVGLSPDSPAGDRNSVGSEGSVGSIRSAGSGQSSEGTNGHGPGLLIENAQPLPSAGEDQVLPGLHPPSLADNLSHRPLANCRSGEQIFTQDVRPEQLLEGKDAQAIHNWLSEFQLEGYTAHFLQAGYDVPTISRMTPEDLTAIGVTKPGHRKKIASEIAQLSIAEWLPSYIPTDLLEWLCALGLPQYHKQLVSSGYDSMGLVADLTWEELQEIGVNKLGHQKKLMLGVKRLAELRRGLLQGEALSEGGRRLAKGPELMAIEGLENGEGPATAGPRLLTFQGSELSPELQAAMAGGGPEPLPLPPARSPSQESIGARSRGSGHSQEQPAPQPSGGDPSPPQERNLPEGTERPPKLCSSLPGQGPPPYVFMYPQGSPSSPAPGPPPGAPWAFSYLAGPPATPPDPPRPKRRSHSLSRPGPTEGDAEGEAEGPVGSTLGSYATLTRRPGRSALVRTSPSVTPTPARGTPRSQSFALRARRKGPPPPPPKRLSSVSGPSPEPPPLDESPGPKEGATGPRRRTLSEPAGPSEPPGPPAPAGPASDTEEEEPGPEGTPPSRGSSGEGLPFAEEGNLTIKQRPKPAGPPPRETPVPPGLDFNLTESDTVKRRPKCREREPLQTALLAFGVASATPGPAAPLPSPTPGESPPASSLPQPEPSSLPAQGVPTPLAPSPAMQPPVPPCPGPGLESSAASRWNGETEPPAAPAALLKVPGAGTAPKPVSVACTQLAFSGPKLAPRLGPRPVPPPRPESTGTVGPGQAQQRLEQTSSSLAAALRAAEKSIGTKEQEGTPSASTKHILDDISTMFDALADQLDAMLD
UniProt P04040: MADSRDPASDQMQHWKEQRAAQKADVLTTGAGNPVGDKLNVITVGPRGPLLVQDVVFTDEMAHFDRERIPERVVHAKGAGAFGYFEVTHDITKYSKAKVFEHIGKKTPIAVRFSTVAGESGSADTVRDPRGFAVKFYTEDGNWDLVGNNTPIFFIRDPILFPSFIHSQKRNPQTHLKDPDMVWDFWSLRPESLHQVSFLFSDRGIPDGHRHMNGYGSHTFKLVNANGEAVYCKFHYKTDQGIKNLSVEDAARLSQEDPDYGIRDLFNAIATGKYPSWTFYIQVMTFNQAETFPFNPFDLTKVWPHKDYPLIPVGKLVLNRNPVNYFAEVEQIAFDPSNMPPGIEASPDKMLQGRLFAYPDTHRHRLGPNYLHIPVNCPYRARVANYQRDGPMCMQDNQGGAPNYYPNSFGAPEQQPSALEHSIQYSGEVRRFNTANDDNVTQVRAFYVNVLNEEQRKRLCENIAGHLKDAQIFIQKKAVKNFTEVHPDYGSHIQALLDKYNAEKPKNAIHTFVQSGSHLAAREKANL
UniProt Q8N4J0: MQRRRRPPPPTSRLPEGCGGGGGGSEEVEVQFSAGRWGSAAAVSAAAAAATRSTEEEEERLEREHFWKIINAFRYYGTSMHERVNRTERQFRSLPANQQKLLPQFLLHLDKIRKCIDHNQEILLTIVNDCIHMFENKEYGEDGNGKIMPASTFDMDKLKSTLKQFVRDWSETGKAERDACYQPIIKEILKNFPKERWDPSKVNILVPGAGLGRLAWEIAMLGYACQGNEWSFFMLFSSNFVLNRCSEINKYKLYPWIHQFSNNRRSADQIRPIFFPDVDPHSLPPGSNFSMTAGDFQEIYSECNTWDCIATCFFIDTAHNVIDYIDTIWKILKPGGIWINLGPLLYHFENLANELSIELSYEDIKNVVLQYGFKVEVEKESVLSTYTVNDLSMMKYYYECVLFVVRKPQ
UniProt P19256, whole entry, looked up: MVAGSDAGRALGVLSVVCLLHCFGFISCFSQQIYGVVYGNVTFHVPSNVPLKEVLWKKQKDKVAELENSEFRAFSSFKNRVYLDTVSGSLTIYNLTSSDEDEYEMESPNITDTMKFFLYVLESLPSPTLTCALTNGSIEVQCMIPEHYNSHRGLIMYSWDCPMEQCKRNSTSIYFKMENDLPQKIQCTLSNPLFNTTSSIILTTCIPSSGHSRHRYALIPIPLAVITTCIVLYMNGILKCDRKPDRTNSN

How the values were obtained:
Experiment in all cases: log2 fold change, soluble protein after heating vs DMSO (PISA); higher = thermal stabilisation; K562 lysate, 10 uM; active = over 0.2 and 3.5 SD of the protein, either way, in both replicates (recomputed)
erlotinib = compound: C#Cc1cccc(Nc2ncnc3cc(OCCOC)c(OCCOC)cc23)c1 [erlotinib]
Outline: (§1)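 Log-two fold change in thermal stability relative to solvent controls is reported from duplicates. For each sample, crude K562 extract from dounce-homogenised pellets in PBS pH 7.4 with 1 mM MgCl2, at 1 mg/mL protein, was treated with 10 μM compound for 30 min. Aliquots heated for 3 min across 48°C-58°C were pooled, brought to 0.5% NP-40 at 4°C and cleared at 21,000xg for 90 min. The supernatant was quantified by TMTpro 16plex LC-MS/MS with channel sums equalised.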

[1] = compound: C/C(=N\NC(=O)C1=CC(=CC=C1)S(=O)(=O)N2CCOCC2)/C3=C(C=CC(=C3)Cl)O
Outline: as §1

[2] = compound: C1=CC(=CC=C1C2=NC3=C(N2)C=C(C=C3)C(=O)N)OC4=CC=C(C=C4)Cl
Outline: as §1

[3] = compound: C1=CC2=C(C=CC(=C2)/C=C\3/C(=O)NC(=NCC4=CC=CS4)S3)N=C1
Outline: as §1

[4] = compound: C1=CC2=NC=CN=C2C=C1/C=C/3\C(=O)NC(=O)S3
Outline: as §1

[5] = compound: C1=CC=C(C=C1)C2=NC(=C(N2)C3=CC=NC=C3)C4=CC(=C(C=C4)Cl)O
Outline: as §1

[6] = compound: C1=CC=C2C(=C1)C3=NNC4=CC=CC(=C43)C2=O
Outline: as §1

[7] = compound: C1CCN(C1)C(=O)NC2=CC=CC(=C2)NC3=NC=C(C(=N3)NCCC4=CN=CN4)Br
Outline: as §1

[8] = compound: C1CN(CCC1(CC2=CC=C(C=C2)Cl)N)C3=NC=NC4=C3C=CN4
Outline: as §1

IRAK-1-4 Inhibitor I = compound: C1COCCN1CCN2C3=CC=CC=C3N=C2NC(=O)C4=CC(=CC=C4)[N+](=O)[O-] [IRAK-1-4 Inhibitor I]
Outline: as §1

ibrutinib = compound: C=CC(=O)N1CCC[C@@H](n2nc(-c3ccc(Oc4ccccc4)cc3)c3c(N)ncnc32)C1 [ibrutinib]
Outline: as §1

[9] = compound: CC(=O)c1cnc2ccc(-c3cc(Cl)c(O)c(Cl)c3)nc2c1N[C@H]1CC[C@H](CN(C)C)CC1
Outline: as §1

ralimetinib = compound: CC(C)(C)Cn1c(N)nc2ccc(-c3[nH]c(C(C)(C)C)nc3-c3ccc(F)cc3)nc21 [ralimetinib]
Outline: as §1

[10] = compound: CC(C)(O)CC(=O)NCCn1ccc2ncnc(Nc3ccc(Oc4cccc(C(F)(F)F)c4)c(Cl)c3)c21
Outline: as §1

[11] = compound: CC(C)C1=C2N=C(C=C(N2N=C1)NCC3=CC=CC=C3)NCCCCCCN
Outline: as §1

[12] = compound: CC1=C(C(CC(=O)N1)C2=CC=C(C=C2)C(F)(F)F)C(=O)NC3=C(C=C4C(=C3)C=NN4)F
Outline: as §1

[13] = compound: CC1=C(C2=C(C=C1)C(=O)C3=CC=CC=C3N2CCCN)C
Outline: as §1

[14] = compound: CC1=C(C=C(C=C1)NC(=O)C2=CC(=CC=C2)C(C)(C)C#N)NC3=CC4=C(C=C3)N=CN(C4=O)C
Outline: as §1

[15] = compound: CC1=C(C=C(C=C1)NC(=O)C2=CC(=CC=C2)N(C)C)NC(=O)C3=CC=C(C=C3)O
Outline: as §1

[16] = compound: CC1=CC=C(C=C1)SC2=C3C=C(SC3=CN=C2)C(=O)N
Outline: as §1

Measured: log2 fold change

CASC3 (UniProt O15234)
inactive: erlotinib -0.005 | [1] -0.115 | [2] 0.012 | [3] -0.047 | [4] -0.053 | [5] -0.045 | [6] 0.039 | [7] 0.036 | [8] -0.061 | IRAK-1-4 Inhibitor I 0.005 | ibrutinib 0.055 | [9] 0.004 | ralimetinib -0.024 | [10] 0.017 | [11] 0.001 | [12] 0.015 | [13] -0.023 | [14] -0.036 | [15] 0.002 | [16] -0.02

CCDC47 (UniProt Q96A33)
inactive: erlotinib 0.02 | [1] 0.003 | [2] -0.071 | [3] 0.009 | [4] 0.022 | [5] -0.03 | [6] -0.093 | [7] -0.007 | [8] 0.024 | IRAK-1-4 Inhibitor I 0.003 | ibrutinib 0 | [9] 0.002 | ralimetinib 0.01 | [10] -0.063 | [11] -0.042 | [12] 0.044 | [13] -0.002 | [14] 0.041 | [15] 0.045 | [16] -0.013

CCDC28B (UniProt Q9BUN5)
inactive: erlotinib -0.019 | [1] -0.005 | [2] 0.143 | [3] 0.06 | [4] 0.027 | [5] 0.023 | [6] -0.07 | [7] 0.114 | [8] -0.033 | IRAK-1-4 Inhibitor I 0.12 | ibrutinib 0.061 | [9] -0.215 | ralimetinib 0.064 | [10] -0.118 | [11] 0 | [12] -0.039 | [13] 0.07 | [14] -0.003 | [15] -0.001 | [16] 0.033

CCNK isoform 4 (UniProt O75909)
inactive: erlotinib -0.018 | [1] -0.022 | [2] -0.012 | [3] -0.016 | [4] -0.062 | [5] -0.039 | [6] -0.001 | [7] 0.01 | [8] 0.002 | IRAK-1-4 Inhibitor I -0.021 | ibrutinib 0.09 | [9] 0.007 | ralimetinib 0.042 | [10] -0.01 | [11] 0.012 | [12] 0.015 | [13] -0.017 | [14] 0.024 | [15] -0.037 | [16] -0.007

CASKIN2 (UniProt Q8WXE0)
inactive: erlotinib 0.013 | [1] 0.027 | [2] 0.013 | [3] -0.019 | [4] -0.061 | [5] -0.001 | [6] 0.062 | [7] 0.034 | [8] 0.024 | IRAK-1-4 Inhibitor I 0.024 | ibrutinib 0.041 | [9] -0.029 | ralimetinib -0.004 | [10] 0.014 | [11] 0.023 | [12] -0.025 | [13] -0.001 | [14] 0.002 | [15] -0.022 | [16] -0.018

CAT (UniProt P04040)
inactive: erlotinib 0.007 | [1] 0.018 | [2] 0.027 | [3] -0.013 | [4] 0.019 | [5] 0.009 | [6] -0.005 | [7] 0.009 | [8] -0.003 | IRAK-1-4 Inhibitor I 0.032 | ibrutinib 0.015 | [9] 0.004 | ralimetinib 0 | [10] -0.018 | [11] 0.031 | [12] -0.027 | [13] 0 | [14] 0.01 | [15] -0.022 | [16] -0.004

Copied from the entries so far (two entries):
CASKIN2 (UniProt Q8WXE0)
inactive: erlotinib 0.013 | [1] 0.027 | [2] 0.013 | [3] -0.019 | [4] -0.061 | [5] -0.001 | [6] 0.062 | [7] 0.034 | [8] 0.024 | IRAK-1-4 Inhibitor I 0.024 | ibrutinib 0.041 | [9] -0.029 | ralimetinib -0.004 | [10] 0.014 | [11] 0.023 | [12] -0.025 | [13] -0.001 | [14] 0.002 | [15] -0.022 | [16] -0.018

CAT (UniProt P04040)
inactive: erlotinib 0.007 | [1] 0.018 | [2] 0.027 | [3] -0.013 | [4] 0.019 | [5] 0.009 | [6] -0.005 | [7] 0.009 | [8] -0.003 | IRAK-1-4 Inhibitor I 0.032 | ibrutinib 0.015 | [9] 0.004 | ralimetinib 0 | [10] -0.018 | [11] 0.031 | [12] -0.027 | [13] 0 | [14] 0.01 | [15] -0.022 | [16] -0.004

(listing goes on)

CARNMT1 (UniProt Q8N4J0)
inactive: erlotinib 0 | [1] 0.004 | [2] 0.028 | [3] -0.019 | [4] 0.029 | [5] -0.015 | [6] -0.05 | [7] -0.008 | [8] -0.011 | IRAK-1-4 Inhibitor I 0.029 | ibrutinib -0.014 | [9] -0.003 | ralimetinib -0.007 | [10] -0.056 | [11] -0.041 | [12] 0.004 | [13] -0.014 | [14] 0.082 | [15] -0.043 | [16] -0.006

CD58 (UniProt P19256)
inactive: erlotinib -0.077 | [1] 0.019 | [2] -0.014 | [3] 0.007 | [4] 0.008 | [5] -0.008 | [6] 0.011 | [7] 0.002 | [8] 0.006 | IRAK-1-4 Inhibitor I -0.059 | ibrutinib 0 | [9] -0.008 | ralimetinib 0.056 | [10] 0.017 | [11] -0.106 | [12] -0.055 | [13] 0.058 | [14] -0.081 | [15] -0.018 | [16] 0.013
